Measured values reported in the supplement of paper PMC4604168 (melanoma cell lines).
The list shows a part of the results. Single values are uncertain, as repeats are few or missing.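 The apoptosis fraction was the count of cleaved-PARP antibody-stained nuclei relative to all DNA-stained nuclei, imaged in 1,536-well plates. Screening doses were set so most cells survived, and baseline and induced cleaved-PARP levels vary greatly across cell lines.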

Key:
Assay in all cases: cleaved PARP positive nuclei fraction relative to DMSO control; melanoma cells; higher = more apoptosis
Settings in all cases: library dose: low library concentration; 72 h
501Mel = tested on: 501Mel
A101D = tested on: A101D
A2058 = tested on: A2058
A375 = tested on: A375
C32 = tested on: C32
CBRC008 = tested on: CBRC008 (line from a melanoma biopsy)
CBRC013 = tested on: CBRC013 (line from a melanoma biopsy)
CBRC014 = tested on: CBRC014 (line from a melanoma biopsy)
CBRC016 = tested on: CBRC016 (line from a melanoma biopsy)
CBRC017 = tested on: CBRC017 (line from a melanoma biopsy)
COLO792 = tested on: COLO792
COLO800 = tested on: COLO800
COLO829 = tested on: COLO829
G361 = tested on: G361
IPC-298 = tested on: IPC-298
IST-MEL1 = tested on: IST-MEL1
LB2518-MEL = tested on: LB2518-MEL
LOXIMVI = tested on: LOXIMVI
MEL-HO = tested on: MEL-HO

| SMILES | cleaved PARP positive nuclei fraction (501Mel) [%] | cleaved PARP positive nuclei fraction (A101D) [%] | cleaved PARP positive nuclei fraction (A2058) [%] | cleaved PARP positive nuclei fraction (A375) [%] | cleaved PARP positive nuclei fraction (C32) [%] | cleaved PARP positive nuclei fraction (CBRC008) [%] | cleaved PARP positive nuclei fraction (CBRC013) [%] | cleaved PARP positive nuclei fraction (CBRC014) [%] | cleaved PARP positive nuclei fraction (CBRC016) [%] | cleaved PARP positive nuclei fraction (CBRC017) [%] | cleaved PARP positive nuclei fraction (COLO792) [%] | cleaved PARP positive nuclei fraction (COLO800) [%] | cleaved PARP positive nuclei fraction (COLO829) [%] | cleaved PARP positive nuclei fraction (G361) [%] | cleaved PARP positive nuclei fraction (IPC-298) [%] | cleaved PARP positive nuclei fraction (IST-MEL1) [%] | cleaved PARP positive nuclei fraction (LB2518-MEL) [%] | cleaved PARP positive nuclei fraction (LOXIMVI) [%] | cleaved PARP positive nuclei fraction (MEL-HO) [%] |
| --- | --- | --- | --- | --- | --- | --- | --- | --- | --- | --- | --- | --- | --- | --- | --- | --- | --- | --- | --- |
| CCN(CC)CCNC(=O)c1c(C)[nH]c(/C=C2\C(=O)Nc3ccc(F)cc32)c1C [sunitinib] + NC(=O)Nc1cc(-c2cccc(F)c2)sc1C(=O)N[C@H]1CCCNC1 [AZD7762] (first compound 0.4 µM, partner dose 0.02 µM) | 199 | 38.4 | 46.8 | 318 | 212 | 57.2 | 389 | 83.2 | 48.3 | 123 | 117 | 48.4 | 44 | 157 | 81 | 59.6 | 73.7 | 103 | 85 |
| NC(=O)c1ccc(N(C(N)=O)c2c(F)cccc2F)nc1-c1ccc(F)cc1F + CN(C)S(=O)(=O)c1ccc2c(c1)/C(=C/c1cc3c([nH]1)CCCC3)C(=O)N2 [SU6656] (first compound 0.4 µM, partner dose 0.4 µM) | 74.8 | 56.5 | 62.6 | 347 | 113 | 45 | 82.2 | 125 | 44.6 | 119 | 292 | 133 | 105 | 72.2 | 91.7 | 97.8 | 97.7 | 64.2 | 61.9 |
| C[C@]1(O)C[C@@H](c2nc(-c3ccc4ccc(-c5ccccc5)nc4c3)c3c(N)nccn32)C1 + CN(NC(=O)CC(=O)NN(C)C(=S)c1ccccc1)C(=S)c1ccccc1 [STA4783] (first compound 0.4 µM, partner dose 0.006 µM) | 648 | 107 | 92.8 | 14900 | 272 | 1670 | 153 | 514 | 72 | 342 | 82.8 | 269 | 180 | 221 | 48.8 | 372 | 182 | 120 | 116 |
| C[C@@H](N)c1ccc(C(=O)Nc2ccnc3[nH]ccc23)cc1 + CC(C)(C)c1cnc(CSc2cnc(NC(=O)C3CCNCC3)s2)o1 [SNS-032] (first compound 0.4 µM, partner dose 0.01 µM) | 82.8 | 250 | 149 | 1420 | 72.7 | 104 | 270 | 102 | 106 | 117 | 259 | 46.9 | 162 | 95.3 | 178 | 152 | 106 | 517 | 450 |
| Cn1sc(=O)n(Cc2ccccc2)c1=O + COc1cc2c(Oc3ccc4[nH]c(C)cc4c3F)ncnc2cc1OCCCN1CCCC1 [cediranib] (first compound 0.4 µM, partner dose 0.4 µM) | 77.9 | 40.8 | 32.4 | 74.5 | 74.9 | 115 | 93.4 | 83 | 78 | 95.8 | 35.5 | 47.9 | 95.6 | 35.2 | 66 | 85 | 41.2 | 112 | 120 |
| C[C@@H](N)c1ccc(C(=O)Nc2ccnc3[nH]ccc23)cc1 + CO[C@@H]1[C@H](N(C)C(=O)c2ccccc2)C[C@H]2O[C@]1(C)n1c3ccccc3c3c4c(c5c6ccccc6n2c5c31)C(=O)NC4 [Midostaurin] (first compound 0.4 µM, partner dose 0.08 µM) | 72.1 | 66.5 | 72.4 | 81.7 | 73.3 | 84.9 | 157 | 95.8 | 208 | 117 | 218 | 54.8 | 158 | 332 | 412 | 56.2 | 77.7 | 63.4 | 165 |
| CCN(CC)CCNC(=O)c1c(C)[nH]c(/C=C2\C(=O)Nc3ccc(F)cc32)c1C [sunitinib] + Cc1cc(N2CCOCC2)cc2[nH]c(-c3c(NC[C@@H](O)c4cccc(Cl)c4)cc[nH]c3=O)nc12 [BMS536924] (first compound 0.4 µM, partner dose 0.2 µM) | 292 | 88.9 | 113 | 338 | 116 | 140 | 253 | 83.4 | 59.8 | 76.4 | 118 | 179 | 75.5 | 156 | 60.3 | 106 | 211 | 223 | 46.7 |
| C[C@@H](N)c1ccc(C(=O)Nc2ccnc3[nH]ccc23)cc1 + Cn1cncc1[C@@](N)(c1ccc(Cl)cc1)c1ccc2c(c1)c(-c1cccc(Cl)c1)cc(=O)n2C [tipifarnib] (first compound 0.4 µM, partner dose 0.01 µM) | 84.2 | 50.2 | 97.3 | 152 | 92.8 | 112 | 122 | 114 | 155 | 119 | 142 | 102 | 74.8 | 158 | 21.3 | 96.6 | 52.6 | 89.9 | 101 |
| COc1ccc(C2=N[C@@H](c3ccc(Cl)cc3)[C@@H](c3ccc(Cl)cc3)N2C(=O)N2CCNC(=O)C2)c(OC(C)C)c1 [Nutlin-3] + COc1cc(Nc2ncc(F)c(Nc3ccc4c(n3)NC(=O)C(C)(C)O4)n2)cc(OC)c1OC [Tamatinib] (first compound 0.1 µM, partner dose 0.4 µM) | 92.6 | 202 | 82.5 | 101 | 195 | 146 | 112 | 92.8 | 33.5 | 95.5 | 230 | 70.9 | 185 | 19.1 | 54 | 79.2 | 120 | 49.9 | 115 |
| CC1(C)CCC(c2ccc(Cl)cc2)=C(CN2CCN(c3ccc(C(=O)NS(=O)(=O)c4ccc(N[C@H](CCN5CCOCC5)CSc5ccccc5)c(S(=O)(=O)C(F)(F)F)c4)cc3)CC2)C1 + Cc1cc(N2CCOCC2)cc2[nH]c(-c3c(NC[C@@H](O)c4cccc(Cl)c4)cc[nH]c3=O)nc12 [BMS536924] (first compound 0.4 µM, partner dose 0.2 µM) | 94.4 | 94.3 | 115 | 411 | 526 | 1090 | 133 | 845 | 599 | 242 | 541 | 281 | 75.2 | 152 | 96.5 | 95.7 | 108 | 137 | 43 |
| Cn1cnc2c(F)c(Nc3ccc(Br)cc3Cl)c(C(=O)NOCCO)cc21 [selumetinib] + Cc1cc(N2CCOCC2)cc2[nH]c(-c3c(NC[C@@H](O)c4cccc(Cl)c4)cc[nH]c3=O)nc12 [BMS536924] (first compound 0.015 µM, partner dose 0.2 µM) | 287 | 77.3 | 97.9 | 136 | 61.5 | 233 | 184 | 239 | 92.3 | 150 | 90.9 | 54.2 | 87.1 | 186 | 138 | 36.2 | 201 | 53 | 295 |
| NC(=O)c1ccc(N(C(N)=O)c2c(F)cccc2F)nc1-c1ccc(F)cc1F + Cc1cc(N2CCOCC2)cc2[nH]c(-c3c(NC[C@@H](O)c4cccc(Cl)c4)cc[nH]c3=O)nc12 [BMS536924] (first compound 0.4 µM, partner dose 0.2 µM) | 93.2 | 88.8 | 110 | 233 | 66 | 226 | 270 | 95.9 | 104 | 106 | 104 | 143 | 78.2 | 114 | 95.3 | 74.5 | 173 | 55.5 | 228 |
| CCCCCCCCc1ccc(CCC(N)(CO)CO)cc1 [fingolimod] + CN(C)S(=O)(=O)c1ccc2c(c1)/C(=C/c1cc3c([nH]1)CCCC3)C(=O)N2 [SU6656] (first compound 2 µM, partner dose 0.4 µM) | 137 | 174 | 95.1 | 216 | 62.3 | 56.4 | 111 | 903 | 35.4 | 1370 | 112 | 109 | 133 | 68.4 | 41.1 | 186 | 106 | 84.7 | 38.8 |
| Cn1sc(=O)n(Cc2ccccc2)c1=O + CC1(C)NC(=O)N(c2ccc([N+](=O)[O-])c(C(F)(F)F)c2)C1=O [nilutamide] (first compound 0.4 µM, partner dose 1 µM) | 105 | 243 | 128 | 58.7 | 45.4 | 124 | 116 | 116 | 111 | 65.6 | 70.1 | 85.6 | 79.1 | 142 | 90.1 | 91.7 | 288 | 144 | 72.3 |
| CCN(CC)CCNC(=O)c1c(C)[nH]c(/C=C2\C(=O)Nc3ccc(F)cc32)c1C [sunitinib] + C=CCn1c(=O)c2cnc(Nc3ccc(N4CCN(C)CC4)cc3)nc2n1-c1cccc(C(C)(C)O)n1 [MK1775] (first compound 0.4 µM, partner dose 0.02 µM) | 133 | 59.5 | 53.4 | 383 | 75.8 | 75.8 | 164 | 90.9 | 29.1 | 107 | 131 | 66 | 158 | 82.3 | 446 | 51.8 | 204 | 131 | 39.2 |
| Cn1sc(=O)n(Cc2ccccc2)c1=O + O=C(O)c1ccc(-c2c[nH]c3ncc(-c4ccccc4)cc23)cc1C1CCCC1 [GSK650394] (first compound 0.4 µM, partner dose 0.16 µM) | 78.3 | 88.2 | 45.2 | 135 | 84.8 | 145 | 112 | 193 | 193 | 109 | 128 | 237 | 126 | 91.3 | 22.5 | 104 | 60.7 | 168 | 95 |

Some of the entries above, reformatted:
SMILES	cleaved PARP positive nuclei fraction (501Mel) [%]	cleaved PARP positive nuclei fraction (A101D) [%]	cleaved PARP positive nuclei fraction (A2058) [%]	cleaved PARP positive nuclei fraction (A375) [%]	cleaved PARP positive nuclei fraction (C32) [%]	cleaved PARP positive nuclei fraction (CBRC008) [%]	cleaved PARP positive nuclei fraction (CBRC013) [%]	cleaved PARP positive nuclei fraction (CBRC014) [%]	cleaved PARP positive nuclei fraction (CBRC016) [%]	cleaved PARP positive nuclei fraction (CBRC017) [%]	cleaved PARP positive nuclei fraction (COLO792) [%]	cleaved PARP positive nuclei fraction (COLO800) [%]	cleaved PARP positive nuclei fraction (COLO829) [%]	cleaved PARP positive nuclei fraction (G361) [%]	cleaved PARP positive nuclei fraction (IPC-298) [%]	cleaved PARP positive nuclei fraction (IST-MEL1) [%]	cleaved PARP positive nuclei fraction (LB2518-MEL) [%]	cleaved PARP positive nuclei fraction (LOXIMVI) [%]	cleaved PARP positive nuclei fraction (MEL-HO) [%]
C[C@@H](N)c1ccc(C(=O)Nc2ccnc3[nH]ccc23)cc1 + Cn1cncc1[C@@](N)(c1ccc(Cl)cc1)c1ccc2c(c1)c(-c1cccc(Cl)c1)cc(=O)n2C [tipifarnib] (first compound 0.4 µM, partner dose 0.01 µM)	84.2	50.2	97.3	152	92.8	112	122	114	155	119	142	102	74.8	158	21.3	96.6	52.6	89.9	101
COc1ccc(C2=N[C@@H](c3ccc(Cl)cc3)[C@@H](c3ccc(Cl)cc3)N2C(=O)N2CCNC(=O)C2)c(OC(C)C)c1 [Nutlin-3] + COc1cc(Nc2ncc(F)c(Nc3ccc4c(n3)NC(=O)C(C)(C)O4)n2)cc(OC)c1OC [Tamatinib] (first compound 0.1 µM, partner dose 0.4 µM)	92.6	202	82.5	101	195	146	112	92.8	33.5	95.5	230	70.9	185	19.1	54	79.2	120	49.9	115
